# Where a name gives a salt, the structure may show the parent alone. ± gives the standard deviation of the averaged measurements. Some of the results follow. Single values are uncertain, as repeats are few or missing.
# Test system: RAW 264.7
# Assay: HMGB1-induced TNF-alpha production relative to HMGB1-stimulated control; higher = more TNF-alpha secretion (less inhibition)
# Settings: stimulus: HMGB1 5 ug/ml, 18 h
# [1] = compound concentration: 1 ug/ml
SMILES,HMGB1-induced TNF-alpha production (compound concentration: 3 uM),HMGB1-induced TNF-alpha production [1]
CCOC(=O)c1ccc(O)cc1,83.1%,–
CC(=O)O[C@H]1Cc2ccccc2N(C(N)=O)c2ccccc21,91.5%,–
O=C(O[C@@H]1C[C@@H]2C[C@H]3C[C@H](C1)N2CC3=O)c1c[nH]c2ccccc12 [Dolasetron],100%,–
O=C(O[C@@H]1C[C@@H]2C[C@H]3C[C@H](C1)N2CC3=O)c1c[nH]c2ccccc12,110%,–
O=C(O)c1ccccc1Nc1cccc(OCc2ccc3ccccc3n2)c1,111%,–
CC(C)(C)NC(=O)[C@@H]1CN(Cc2cccnc2)CCN1C[C@@H](O)C[C@@H](Cc1ccccc1)C(=O)N[C@H]1c2ccccc2C[C@H]1O,43.2%,–
COc1ccc2cc1Oc1ccc(cc1)C[C@H]1c3c(cc4c(c3Oc3cc5c(cc3OC)CCN(C)[C@@H]5C2)OCO4)CCN1C,83%,–
CCCCCCCC/C=C\CCCCCCCC(=O)O [Oleic Acid],103%,–
CC(C)(C)NCC(O)c1ccc(O)c(CO)c1 (stereo not given) [Salbutamol],58.8 ± 29%,–
CC(C)(C)NCC(O)c1ccc(O)c(CO)c1 (stereo not given),51.3%,–
CC(C)(C)NCC(O)c1ccc(O)c(CO)c1 (stereo not given) [Albuterol hemisulfate],60.3%,–
Cc1c(OCC(F)(F)F)ccnc1C[S+]([O-])c1nc2ccccc2[nH]1 (stereo not given) [Lansoprazole],106 ± 24%,–
Cc1c(OCC(F)(F)F)ccnc1C[S+]([O-])c1nc2ccccc2[nH]1 (stereo not given),73.9 ± 11%,–
[N-]=[N+]=Nc1ccc(C(=O)CSC[C@H](NC(=O)CC[C@H](N)C(=O)O)C(=O)NCC(=O)O)cc1 [S-(p-Azidophenacyl)glutathione],87.1%,–
Cn1c(=O)c2c(ncn2C)n(C)c1=O,75.2%,–
Cn1c(=O)c2c(ncn2C)n(C)c1=O [Caffeine],94.1 ± 15%,62.4%
O=C(O)C[C@H](O)C[C@H](O)/C=C/c1c(C2CC2)nc2ccccc2c1-c1ccc(F)cc1,163%,–
Cc1ccc(C)c(OCCCC(C)(C)C(=O)O)c1 [Gemfibrozil],98.1 ± 2.2%,–
Cc1ccc(C)c(OCCCC(C)(C)C(=O)O)c1,93.3%,–
O=c1[nH]c2cc(Cl)ccc2c(O)c1-c1cccc(Oc2ccccc2)c1,116%,–
O=C(CCCN1CCC(O)(c2ccc(Cl)cc2)CC1)c1ccc(F)cc1,70.8%,–

SMILES,HMGB1-induced TNF-alpha production (compound concentration: 3 uM),HMGB1-induced TNF-alpha production [1]
O=C(CCCN1CCC(O)(c2ccc(Cl)cc2)CC1)c1ccc(F)cc1 [Haloperidol],87.4 ± 22%,–
NC(=O)c1ccc[n+]([C@@H]2O[C@H](COP(=O)([O-])OP(=O)(O)OC[C@H]3O[C@@H](n4cnc5c(N)ncnc54)[C@H](O)[C@@H]3O)[C@@H](O)[C@H]2O)c1,91.7%,–
NC(=O)c1ccc[n+]([C@@H]2O[C@H](COP(=O)([O-])OP(=O)(O)OC[C@H]3O[C@@H](n4cnc5c(N)ncnc54)[C@H](O)[C@@H]3O)[C@@H](O)[C@H]2O)c1 [Nadide],94.6%,–
CNCCC=C1c2ccccc2C=Cc2ccccc21 [Norcyclobenzaprine],58.6%,–
NCC(=O)CCC(=O)O,78.9%,–
COc1ccc(CN(CCN(C)C)c2ncccn2)cc1,107%,–
"N=C(N)SCCc1ccc(CCSC(=N)N)cc1 [1,4-PBIT dihydrobromide]",111%,–
Cc1cc2c(OCC(CNC(C)(C)C)OC(=O)c3ccccc3)cccc2[nH]1 (stereo not given) [Bopindolol],103%,–
CC1(C)S[C@@H]2[C@H](NC(=O)[C@H](N)c3ccccc3)C(=O)N2[C@H]1C(=O)OC1OC(=O)c2ccccc21 (stereo not given in full) [Talampicillin hydrochloride],92.6%,–
NC(=O)OCC(O)COc1ccc(Cl)cc1 (stereo not given) [Chlorphensin carbamate],99%,–
CC(N)(Cc1ccc(O)cc1)C(=O)O (racemic) [DL-alpha-Methyl-p-tyrosine],84.7%,–
COC(=O)CCc1ccc(OCC(O)CNC(C)C)cc1 (stereo not given) [Esmolol],113%,–
COC(=O)CCc1ccc(OCC(O)CNC(C)C)cc1 (stereo not given) [Esmolol hydrochloride],121%,–
COC(=O)CCc1ccc(OCC(O)CNC(C)C)cc1 (stereo not given),98.4%,–
NCCS [Cysteamine hydrochloride],113%,–
NCCS,81.4%,–
COCCOC(=O)C1=C(C)NC(C)=C(C(=O)OC(C)C)C1c1cccc([N+](=O)[O-])c1 (stereo not given) [Nimodipine],99 ± 9%,–
COCCOC(=O)C1=C(C)NC(C)=C(C(=O)OC(C)C)C1c1cccc([N+](=O)[O-])c1 (stereo not given),103 ± 12%,–
CN1C(C(=O)Nc2ccccn2)=C(O)c2ccccc2S1(=O)=O [Piroxicam],108 ± 9%,–
CN1C(C(=O)Nc2ccccn2)=C(O)c2ccccc2S1(=O)=O,97.2%,–
COc1c(C)c2c(c(O)c1C/C=C(\C)CCC(=O)OCCN1CCOCC1)C(=O)OC2 [Mycophenolate mofetil],20.8%,–

SMILES,HMGB1-induced TNF-alpha production (compound concentration: 3 uM),HMGB1-induced TNF-alpha production [1]
"COC(=O)[C@@H](N)Cc1ccc(O)c(O)c1 [L-3,4-Dihydroxyphenylalanine methyl ester hydrochloride]",78.2%,–
C[C@]12CCC(=O)C=C1C=C[C@@H]1[C@@H]2CC[C@@]2(C)[C@H]1CC[C@@]21CCC(=O)O1,77.4%,–
C[C@]12CCC(=O)C=C1C=C[C@@H]1[C@@H]2CC[C@@]2(C)[C@H]1CC[C@@]21CCC(=O)O1 [Canrenone],90.8 ± 22%,–
COc1ccc2c(c1)c(CC(=O)O)c(C)n2Cc1ccc(Cl)cc1 [1-(4-Chlorobenzyl)-5-methoxy-2-methylindole-3-acetic acid],99.5%,–
CC1(C)[C@@H](O)CC[C@]2(C)[C@H]3C(=O)C=C4[C@@H]5C[C@@](C)(C(=O)O)CC[C@]5(C)CC[C@@]4(C)[C@]3(C)CC[C@@H]12 [Enoxolone],–,46%
CC1(C)[C@@H](O)CC[C@]2(C)[C@H]3C(=O)C=C4[C@@H]5C[C@@](C)(C(=O)O)CC[C@]5(C)CC[C@@]4(C)[C@]3(C)CC[C@@H]12,77.1%,–
"Oc1cc(O)c2c(c1)O[C@H](c1ccc(O)c(O)c1)[C@@H](O)C2 (racemic) [Catechin-(+,-) hydrate]",111%,–
CCCNC(C)C(=O)Nc1c(C)csc1C(=O)OC (stereo not given) [Articaine hydrochloride],109%,–
NCCc1cc[nH]n1 [Betazole hydrochloride],62.8%,–
COc1cccc(N(C)C(=S)Oc2ccc3c(c2)CCCC3)n1 [Liranaftate],104%,–
Cc1c(NC(C)C)c(=O)n(-c2ccccc2)n1C,69.2%,–
Cc1c(NC(C)C)c(=O)n(-c2ccccc2)n1C [Isopyrin hydrochloride],114%,–
COc1cc(/C=C(\C#N)C(=O)c2ccc(O)c(O)c2)cc(I)c1O [I-OMe-Tyrphostin AG 538],109%,–
CC(=O)Oc1cc(OC(C)=O)c2c(=O)cc(-c3ccc(OC(C)=O)c(OC(C)=O)c3)oc2c1,–,79.7%
N[C@@H](Cc1c[nH]cn1)C(=O)O [L-Histidine hydrochloride],84.7%,–
NCCC(O)(P(=O)(O)O)P(=O)(O)O [Pamidronic acid],87.9%,–
CC(C[N+](C)(C)C)OC(N)=O (stereo not drawn) [Carbamyl-beta-methylcholine],106%,–
CC(C[N+](C)(C)C)OC(N)=O (stereo not given) [Bethanechol chloride],109 ± 21%,–
CC(C[N+](C)(C)C)OC(N)=O (stereo not given),73.8%,–
NC(Cc1cnc[nH]1)C(=O)NC(CO)C(=O)O (stereo not given),–,65.6%
CCCCCCCCCCOc1cc2c(O)c(C(=O)OCC)cnc2cc1OCC,91.9%,–

# A section from the list above, as a working copy:
SMILES,HMGB1-induced TNF-alpha production (compound concentration: 3 uM),HMGB1-induced TNF-alpha production [1]
O=C(O)c1ccccc1Nc1cccc(OCc2ccc3ccccc3n2)c1,111%,–
CC(C)(C)NC(=O)[C@@H]1CN(Cc2cccnc2)CCN1C[C@@H](O)C[C@@H](Cc1ccccc1)C(=O)N[C@H]1c2ccccc2C[C@H]1O,43.2%,–

# (next part)

SMILES,HMGB1-induced TNF-alpha production (compound concentration: 3 uM),HMGB1-induced TNF-alpha production [1]
COc1ccc2c(c1)C(=O)N(CCc1ccc(S(=O)(=O)NC(=O)NC3CCCCC3)cc1)C(=O)C2(C)C [Gliquidone],55.6%,–
CC(C)[C@@H](C)/C=C/[C@@H](C)[C@H]1CC[C@H]2/C(=C/C=C3\C[C@@H](O)CC[C@@H]3C)CCC[C@]12C [dihydrotachysterol],–,68.9%
NS(=O)(=O)Cc1noc2ccccc12 [Zonisamide],116 ± 20%,–
CN(C)CCN(Cc1ccc(Cl)cc1)c1ccccn1,76.3%,–
CN(C)CCN(Cc1ccc(Cl)cc1)c1ccccn1 [Chloropyramine hydrochloride],126%,–
COc1ccc([C@@H]2Sc3ccccc3N(CCN(C)C)C(=O)[C@@H]2OC(C)=O)cc1 [Diltiazem hydrochloride],84.8 ± 7.6%,–
COc1ccc([C@@H]2Sc3ccccc3N(CCN(C)C)C(=O)[C@@H]2OC(C)=O)cc1,91.1%,–
COc1ccc([C@@H]2Sc3ccccc3N(CCN(C)C)C(=O)[C@@H]2OC(C)=O)cc1 [Diltiazem],81.9%,–
Cc1cn([C@H]2C[C@H](N=[N+]=[N-])[C@@H](CO)O2)c(=O)[nH]c1=O [3'-Azido-3'-deoxythymidine],87.6 ± 14%,–
"Cc1cn([C@H]2C[C@H](N=[N+]=[N-])[C@@H](CO)O2)c(=O)[nH]c1=O [Zidovudine, AZT]",76.6%,–
Cc1cn([C@H]2C[C@H](N=[N+]=[N-])[C@@H](CO)O2)c(=O)[nH]c1=O,93.4%,–
O=C1Nc2ccc(I)cc2/C1=C/c1cc(Br)c(O)c(Br)c1,72.1%,–
O=C1N=C(O)NC1(c1ccccc1)c1ccccc1 [Phenytoin sodium],88.7%,–
O=C1N=C(O)NC1(c1ccccc1)c1ccccc1,97.2%,–
COc1cc(NS(=O)(=O)c2ccc(N)cc2)nc(OC)n1,93.3%,–
COc1cc(NS(=O)(=O)c2ccc(N)cc2)nc(OC)n1 [Sulfadimethoxine],92.5 ± 2.3%,–
C=N[C@@H](C(=O)N[C@@H]1C(=O)N2[C@@H]1SC(C)(C)[C@@H]2C(=O)O)c1ccccc1 [Metampicillin sodium salt],105%,–
CC[N+](CC)(CC(=O)Nc1c(C)cccc1C)Cc1ccccc1,97.7%,–
CC[N+](CC)(CC(=O)Nc1c(C)cccc1C)Cc1ccccc1 [Denatonium benzoate],68%,–
CC1(C)O[C@@H]2[C@@H](CO[C@@]3(COS(N)(=O)=O)OC(C)(C)O[C@@H]23)O1,89.7 ± 13%,–
CC1(C)O[C@@H]2[C@@H](CO[C@@]3(COS(N)(=O)=O)OC(C)(C)O[C@@H]23)O1 [Topiramate],127%,–

# Record cards, from the list above. Values in the order: HMGB1-induced TNF-alpha production (compound concentration: 3 uM) | HMGB1-induced TNF-alpha production [1]
# CN(C)CCN(Cc1ccc(Cl)cc1)c1ccccn1 [Chloropyramine hydrochloride] reads 126% | –
# O=C1Nc2ccc(I)cc2/C1=C/c1cc(Br)c(O)c(Br)c1 reads 72.1% | –
# CC[N+](CC)(CC(=O)Nc1c(C)cccc1C)Cc1ccccc1 [Denatonium benzoate] reads 68% | –
# CC[N+](CC)(CC(=O)Nc1c(C)cccc1C)Cc1ccccc1 reads 97.7% | –
